At least one compound was matched to its structure with a doubt left.
System: lower density lipoproteins (LDL+VLDL)
Test: Inhibition of cupric ion oxidation of lower density lipoproteins (quality of antioxidant activity)

O=[Se](O)O [Sodium selenite, sodium selenite]
antioxidant activity (in words) (LDL+VLDL oxidation, 0.1 to 100 μM): no antioxidant activity | IC50 (concentration of selenium to inhibit LDL+VLDL oxidation 50%, cupric ion, 6 hours): > 100 µM

Reference: patent publication US7138113B2, “Glycoprotein matrix compositions and methods related thereto” (Pharmachem Laboratories, Inc., priority 2001, dated 2006)
